The results in this text go back to PMC10763294.

Chains of the proteins cited; added tags and fusions are not shown.
UniProt P49327: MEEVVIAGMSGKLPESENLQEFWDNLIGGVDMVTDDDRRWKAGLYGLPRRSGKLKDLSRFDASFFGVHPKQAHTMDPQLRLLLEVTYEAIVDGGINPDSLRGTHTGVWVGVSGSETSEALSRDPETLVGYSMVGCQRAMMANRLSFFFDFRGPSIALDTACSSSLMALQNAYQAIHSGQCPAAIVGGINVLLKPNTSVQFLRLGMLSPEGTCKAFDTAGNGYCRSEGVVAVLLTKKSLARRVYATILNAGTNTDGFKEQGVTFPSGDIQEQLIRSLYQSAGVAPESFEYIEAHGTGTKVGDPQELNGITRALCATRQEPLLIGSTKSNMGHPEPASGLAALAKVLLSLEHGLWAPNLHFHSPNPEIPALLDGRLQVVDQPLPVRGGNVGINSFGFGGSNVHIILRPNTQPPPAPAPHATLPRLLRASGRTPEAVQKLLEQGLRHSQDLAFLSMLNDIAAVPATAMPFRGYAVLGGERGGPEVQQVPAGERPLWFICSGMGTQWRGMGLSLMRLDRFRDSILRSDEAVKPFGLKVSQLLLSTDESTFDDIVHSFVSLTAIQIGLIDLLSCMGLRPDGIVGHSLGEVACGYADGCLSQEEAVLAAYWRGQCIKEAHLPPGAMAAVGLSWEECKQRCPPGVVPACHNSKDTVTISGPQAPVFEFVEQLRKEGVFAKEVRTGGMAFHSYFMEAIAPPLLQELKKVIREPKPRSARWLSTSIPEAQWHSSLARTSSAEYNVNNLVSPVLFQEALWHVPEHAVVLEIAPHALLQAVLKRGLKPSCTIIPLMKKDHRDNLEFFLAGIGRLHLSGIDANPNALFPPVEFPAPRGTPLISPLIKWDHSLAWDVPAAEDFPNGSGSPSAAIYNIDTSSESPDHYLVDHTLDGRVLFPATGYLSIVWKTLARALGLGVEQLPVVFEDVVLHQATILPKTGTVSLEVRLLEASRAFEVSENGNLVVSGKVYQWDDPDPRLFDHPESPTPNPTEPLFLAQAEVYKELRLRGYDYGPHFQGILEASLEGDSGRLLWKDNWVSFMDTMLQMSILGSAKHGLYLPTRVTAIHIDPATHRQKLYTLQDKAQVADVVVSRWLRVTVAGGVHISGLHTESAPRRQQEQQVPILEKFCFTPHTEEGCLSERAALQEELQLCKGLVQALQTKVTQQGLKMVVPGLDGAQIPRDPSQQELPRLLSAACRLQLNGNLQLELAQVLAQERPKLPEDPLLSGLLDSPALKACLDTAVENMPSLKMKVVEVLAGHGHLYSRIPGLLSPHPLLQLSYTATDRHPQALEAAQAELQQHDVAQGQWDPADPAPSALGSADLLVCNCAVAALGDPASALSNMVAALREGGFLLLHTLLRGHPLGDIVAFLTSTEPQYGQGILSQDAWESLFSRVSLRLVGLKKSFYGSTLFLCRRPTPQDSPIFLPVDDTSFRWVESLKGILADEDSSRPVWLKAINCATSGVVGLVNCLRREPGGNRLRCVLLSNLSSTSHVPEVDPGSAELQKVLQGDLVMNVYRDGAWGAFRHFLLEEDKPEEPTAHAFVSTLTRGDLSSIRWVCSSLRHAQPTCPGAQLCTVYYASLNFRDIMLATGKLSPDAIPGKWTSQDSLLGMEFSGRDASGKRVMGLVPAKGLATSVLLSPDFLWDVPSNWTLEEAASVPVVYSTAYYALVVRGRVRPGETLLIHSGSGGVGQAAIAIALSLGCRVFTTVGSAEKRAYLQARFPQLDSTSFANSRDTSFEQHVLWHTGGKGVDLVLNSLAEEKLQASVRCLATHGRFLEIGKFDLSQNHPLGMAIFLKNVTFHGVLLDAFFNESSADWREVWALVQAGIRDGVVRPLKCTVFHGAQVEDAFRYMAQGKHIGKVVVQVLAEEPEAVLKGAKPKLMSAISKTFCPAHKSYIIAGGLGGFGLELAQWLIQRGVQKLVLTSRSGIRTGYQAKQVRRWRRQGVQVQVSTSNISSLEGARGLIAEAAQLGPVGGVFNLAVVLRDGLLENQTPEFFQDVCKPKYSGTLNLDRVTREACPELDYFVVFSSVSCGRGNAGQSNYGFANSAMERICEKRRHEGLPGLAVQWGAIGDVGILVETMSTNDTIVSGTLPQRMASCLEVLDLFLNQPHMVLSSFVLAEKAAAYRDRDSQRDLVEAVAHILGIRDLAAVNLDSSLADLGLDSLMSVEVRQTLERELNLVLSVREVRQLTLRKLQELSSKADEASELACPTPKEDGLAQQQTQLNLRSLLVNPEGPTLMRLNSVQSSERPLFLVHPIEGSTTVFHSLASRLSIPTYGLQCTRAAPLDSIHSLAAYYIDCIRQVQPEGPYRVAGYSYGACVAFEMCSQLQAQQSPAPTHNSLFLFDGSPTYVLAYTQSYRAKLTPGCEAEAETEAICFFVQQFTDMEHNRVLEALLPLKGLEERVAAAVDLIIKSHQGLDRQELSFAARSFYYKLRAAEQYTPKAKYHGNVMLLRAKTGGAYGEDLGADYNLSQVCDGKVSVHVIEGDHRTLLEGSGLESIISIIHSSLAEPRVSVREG
UniProt Q8N9U0: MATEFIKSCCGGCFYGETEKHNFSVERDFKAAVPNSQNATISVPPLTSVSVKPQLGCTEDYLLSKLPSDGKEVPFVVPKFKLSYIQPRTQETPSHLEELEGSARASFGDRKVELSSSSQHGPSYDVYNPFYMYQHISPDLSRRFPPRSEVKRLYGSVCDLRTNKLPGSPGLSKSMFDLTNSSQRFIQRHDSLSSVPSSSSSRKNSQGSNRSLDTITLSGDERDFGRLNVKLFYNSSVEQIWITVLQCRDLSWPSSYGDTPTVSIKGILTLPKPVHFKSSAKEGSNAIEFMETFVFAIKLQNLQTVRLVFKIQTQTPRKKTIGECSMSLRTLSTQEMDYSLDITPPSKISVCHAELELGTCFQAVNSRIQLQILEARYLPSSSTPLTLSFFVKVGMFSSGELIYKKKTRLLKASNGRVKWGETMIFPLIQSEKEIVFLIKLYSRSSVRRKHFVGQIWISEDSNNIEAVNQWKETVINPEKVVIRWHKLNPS
UniProt P19474: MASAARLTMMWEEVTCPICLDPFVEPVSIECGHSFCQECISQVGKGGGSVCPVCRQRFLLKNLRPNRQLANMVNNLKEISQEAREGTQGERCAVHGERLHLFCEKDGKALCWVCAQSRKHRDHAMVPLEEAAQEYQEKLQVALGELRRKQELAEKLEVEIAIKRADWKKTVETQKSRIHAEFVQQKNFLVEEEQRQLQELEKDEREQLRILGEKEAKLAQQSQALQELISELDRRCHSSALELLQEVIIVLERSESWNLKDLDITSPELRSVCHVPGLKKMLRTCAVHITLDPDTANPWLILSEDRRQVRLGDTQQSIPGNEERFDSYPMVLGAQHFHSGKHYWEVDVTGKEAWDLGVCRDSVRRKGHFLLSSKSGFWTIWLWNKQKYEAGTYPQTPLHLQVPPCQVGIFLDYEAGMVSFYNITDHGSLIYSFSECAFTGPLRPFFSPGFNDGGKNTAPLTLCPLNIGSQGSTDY
UniProt Q14974: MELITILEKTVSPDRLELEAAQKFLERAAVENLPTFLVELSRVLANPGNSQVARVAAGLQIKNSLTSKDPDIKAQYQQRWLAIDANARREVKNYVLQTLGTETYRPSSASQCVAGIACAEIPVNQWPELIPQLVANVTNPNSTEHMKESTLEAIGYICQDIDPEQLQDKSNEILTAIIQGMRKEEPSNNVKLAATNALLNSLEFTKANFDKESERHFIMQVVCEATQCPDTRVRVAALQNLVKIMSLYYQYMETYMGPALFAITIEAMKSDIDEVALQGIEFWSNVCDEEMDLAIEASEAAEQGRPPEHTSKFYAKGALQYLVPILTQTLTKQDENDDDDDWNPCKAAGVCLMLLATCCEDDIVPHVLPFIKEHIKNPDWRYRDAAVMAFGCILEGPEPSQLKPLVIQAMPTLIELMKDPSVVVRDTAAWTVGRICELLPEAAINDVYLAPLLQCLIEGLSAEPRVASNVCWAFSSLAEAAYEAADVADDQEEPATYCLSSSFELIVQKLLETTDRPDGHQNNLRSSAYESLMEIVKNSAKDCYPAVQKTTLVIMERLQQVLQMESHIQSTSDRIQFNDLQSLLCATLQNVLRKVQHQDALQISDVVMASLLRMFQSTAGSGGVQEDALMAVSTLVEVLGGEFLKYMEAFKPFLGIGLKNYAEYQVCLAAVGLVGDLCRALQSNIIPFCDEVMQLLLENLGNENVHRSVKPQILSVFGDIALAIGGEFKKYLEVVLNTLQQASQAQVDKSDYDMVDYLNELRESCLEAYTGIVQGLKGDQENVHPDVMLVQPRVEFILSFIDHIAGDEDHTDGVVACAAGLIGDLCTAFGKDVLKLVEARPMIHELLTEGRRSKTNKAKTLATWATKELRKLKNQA

Assay [1] concerns the target Fatty acid synthase (FASN) (human (endogenous in breast carcinoma cell lines)) (UniProt P49327). In words: co-IP; extracts of BC cells (M231) with control, FLAG-TC2N full-length or truncation lentivirus, IP with anti-FASN antibody and protein A/G agarose beads, 16 h at 4 °C, WB; high glucose; in one panel cells treated with 20 µM MG132 for 24 h; normal IgG as negative control.

The target of assay [2] is FLAG-TC2N (tandem C2 domains, nuclear), full-length (human) (UniProt Q8N9U0). In words: co-IP; extracts of TC2N-overexpressing BC cells, IP with anti-Flag antibody and protein A/G agarose beads, 16 h at 4 °C, WB; high glucose condition; normal IgG as negative control.

Results are given in words; binding and its absence hold for the method and conditions named. Binding seen in cells or lysates may run through a third protein. Some binding calls cover weakened binding; strength is not graded here.

Turning to “FLAG-TC2N (tandem C2 domains, nuclear), full-length (from UniProt Q8N9U0 1-490)”, in assay [1], the binding result is given as “binds”.

“Tripartite motif containing 21 (TRIM21) (from UniProt P19474 1-475) (enzyme)”: the binding entry in assay [1] and in assay [2] was “binds” in each case.

importinβ (from UniProt Q14974 1-876): the binding entry in assay [2] is reported as “binds”.
